Paper doi:10.1101/2020.06.15.144444
Results are given in words; binding and its absence hold for the method and conditions named. Some results given as binding are weak or reduced against the parent protein; the word gives no strength.

Amino acid sequences for entries named in this document (tags omitted). Residues count along the entry.
UniProt Q9DC11, residues 31-455: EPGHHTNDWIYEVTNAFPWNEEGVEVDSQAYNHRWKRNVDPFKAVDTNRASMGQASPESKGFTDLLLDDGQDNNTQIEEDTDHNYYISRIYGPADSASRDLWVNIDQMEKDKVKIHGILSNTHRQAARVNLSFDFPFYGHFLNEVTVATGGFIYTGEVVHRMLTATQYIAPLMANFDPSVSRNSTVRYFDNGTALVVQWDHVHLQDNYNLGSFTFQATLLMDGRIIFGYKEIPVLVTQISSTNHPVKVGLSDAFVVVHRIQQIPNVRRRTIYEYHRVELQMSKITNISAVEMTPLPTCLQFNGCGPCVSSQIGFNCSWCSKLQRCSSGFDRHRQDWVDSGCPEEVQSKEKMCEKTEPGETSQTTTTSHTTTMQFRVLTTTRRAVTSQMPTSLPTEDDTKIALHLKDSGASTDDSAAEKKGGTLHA
UniProt Q80T32, residues 111-305: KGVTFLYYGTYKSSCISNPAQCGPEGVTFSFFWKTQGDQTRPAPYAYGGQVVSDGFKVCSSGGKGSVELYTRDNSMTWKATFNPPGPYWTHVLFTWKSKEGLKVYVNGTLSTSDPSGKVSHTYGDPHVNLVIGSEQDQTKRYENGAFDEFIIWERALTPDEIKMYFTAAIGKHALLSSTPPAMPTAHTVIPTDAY

Biological target: mouse Plxdc2 entire ectodomain (AVEXIS bait and prey) (mouse) (UniProt Q9DC11)
Assay: AVEXIS

pentraxin (PTX) domain of Adgrd1 (truncated ectodomain) (from UniProt Q80T32 111-305) (domain or fragment)
binding: binds
